# From the supplement of paper PMC5355238
# Structures can show the parent of a compound that is named as a salt. ± gives the standard deviation of the averaged measurements. The list shows a part of the results. Single values are uncertain, as repeats are few or missing.
# System: Reh
# Experiment: S-phase gammaH2AX median, Z-score vs plate median (drug alone); higher = more S-phase DNA damage
# Conditions: MK1775 concentration 0 nM; 10 µM; 4 h
row,SMILES,S-phase gammaH2AX median (Z-score)
1,CCCN1CCC[C@@H]2Cc3nc(N)ncc3C[C@H]21 [Quinelorane dihydrochloride],-0.026
2,C[C@]12CC[C@@H](O)C[C@@H]1CC[C@@H]1[C@@H]2CC[C@]2(C)C(=O)CC[C@@H]12 [Androsterone],-0.0485
3,Cc1ccccc1-n1c(Cn2cnc3c(N)ncnc32)nc2cccc(C)c2c1=O,0.102
4,"CN(N=O)c1ccc(O)c(O)c1 [Me-3,4-dephostatin]",0.0426
5,"C[C@]12CC[C@@H](O)C[C@@H]1CC[C@@H]1[C@@H]2CC[C@]2(C)[C@@H](O)CC[C@@H]12 [5alpha-Androstane-3alpha,17beta-diol]",-0.0466
6,CC(Cc1ccc(OCC(=O)O)cc1)NCC(O)c1cccc(Cl)c1 (centres undefined),-0.0155
7,OC1CCCCC1N1CCC(c2ccccc2)CC1 (centres undefined) [(?)-Vesamicol hydrochloride],0
8,N[C@@H](Cc1ccc(N(CCCl)CCCl)cc1)C(=O)O [Melphalan],1.62 ± 1.4
9,C=CCN1C[C@H](C)N([C@H](c2ccc(C(=O)N(CC)CC)cc2)c2cccc(OC)c2)C[C@H]1C,-0.501
10,N=C(N)NN [Aminoguanidine hydrochloride],-0.0252
11,N=C(N)NN [Aminoguanidine hemisulfate],-0.0621
12,CC(C)N(CCC(C(N)=O)(c1ccccc1)c1ccccn1)C(C)C (centres undefined) [Disopyramide],-0.022
13,CC(C)N(CCC(C(N)=O)(c1ccccc1)c1ccccn1)C(C)C (centres undefined) [Disopyramide phosphate],0.0189
14,C[C@H](N)CN1CCc2ccc(Br)cc21 [VER-3323 hemifumarate salt],-0.116
15,CN1[C@@H]2CC[C@H]1C[C@@H](OC(=O)[C@H](CO)c1ccccc1)C2 [L-Hyoscyamine],-0.0194
16,CN(C)CCN(C)CCc1ccc(Cl)c(Cl)c1,-0.0638
17,"O=[N+]([O-])c1cc(O)c(O)c([N+](=O)[O-])c1 [3,5-Dinitrocatechol]",-0.239
18,CN[C@@H]1C[C@@H](c2ccc(Cl)c(Cl)c2)c2ccccc21 [Indatraline hydrochloride],-0.255
19,"CC12CCC3C(CCC4=C(O)C(=O)CCC43C)C1CCC2=O (centres undefined) [4-Androsten-4-ol-3,17-dione]",-0.068
20,C=C(C)[C@H]1CN[C@H](C(=O)O)[C@H]1CC(=O)O [Kainic acid],-0.0063
21,N[C@@H](Cn1ccc(=O)[nH]c1=O)C(=O)O [S(-)-Willardiine],0.407
22,c1ccc2c(N3CCNCC3)cccc2c1 [1-(1-Naphthyl)piperazine hydrochloride],-0.174
23,"CCCN(CCC)CCc1c[nH]c2ccc(C(N)=O)cc12 [N,N-Dipropyl-5-carboxamidotryptamine maleate]",0.0535
24,"O=[N+]([O-])c1ccc2nc(N3CCNCC3)ccc2c1 [Quipazine, 6-nitro-, maleate]",0.0922

# Copied from above: nos. 16 to 17
row,SMILES,S-phase gammaH2AX median (Z-score)
16,CN(C)CCN(C)CCc1ccc(Cl)c(Cl)c1,-0.0638
17,"O=[N+]([O-])c1cc(O)c(O)c([N+](=O)[O-])c1 [3,5-Dinitrocatechol]",-0.239
